Patent US9446092B2, “Use of a neurofilament peptide for the treatment of glioma” (UNIVERSITE D'ANGERS, priority 2009, dated 2016)
Not every detail of the peptide structures is certain; ends, links or a residue may be inferred. Ends that are not written are not given here.

How the values were obtained:
[1] = system: human glioma cells (U87-MG and T98G); experiment: Immunocytochemistry: peptide penetration and microtubule network; assay type: cell-based
human glioma cells = experiment: Cell death analysis by flow cytometry (Annexin V / PI); assay type: cell-based; settings: 100 μM, 72 h, FIG. 8B
[2] = system: rat, human and mouse gliomas; experiment: Trypan blue dye exclusion test; assay type: cell-based; settings: data not shown
9L cells [3] = experiment: BrdU incorporation (cell proliferation); assay type: cell-based, rat; settings: 100 μM, 72 hours
Method: (§1) To assess cell proliferation, 5-bromodeoxyuridine (BrdU) immunohistochemistry was used. Cells were platted on coverslips and cultured in media containing biotinylated peptides (100 μM) for 72 hours, and incubated during 4 hours in the presence of 1 mg/mL BrdU (Sigma). Cells were then washed in PBS, fixed in 3% paraformaldehyde for 10 min and permeabilized with 1% Triton X-100 in PBS for 10 min. Cells were acidified to denature the DNA (2 N HCl, 10 min), neutralized (0.1 M sodium borate, 10 min) and then rinsed extensively in PBS. After blocking with 10% NGS (10 min) the cells were labeled with monoclonal anti-BrdU antibody (1/400) followed by Alexa 568 nm anti-mouse antibody (1/200). Nuclei were stained with 4′6-diaminido-2-phenylindole (DAPI; Sigma). […] Images were acquired with a CoolSNAP HQ2 camera and analyzed with Metamorph 7.1.7.0. software. Minimums of 200 cells were scored for BrdU incorporation, and experiments were repeated at least three times.

F98 cells [4] = experiment: BrdU incorporation (cell proliferation); assay type: cell-based, rat; settings: 100 μM, 72 hours
Method: as §1

[5] = system: primary human glioblastoma cells; experiment: MTS assay on primary glioblastoma cells isolated after surgery; assay type: cell-based; settings: 100 μM, 72 hours of incubation
Method: Primary human glioblastoma cells obtained from tissue samples extracted in human brains during surgery are put in culture in a DMEM medium containing glucose, L-glutamine, 10% fetal calf serum, […] (Sigma). Cells were plated (20 000 cells per cm^2) in MW96 and let grow at 37° C. in a humidified incubator gassed with 5% CO2. The peptides and/or drugs are added 48 hours after their plating.
The effects of peptides on the proliferation of glioma cells or astrocytes were evaluated by the MTS cytotoxicity assay and by counting directly the number of cells. For the MTS assay (Promega), 500 cells were seeded in 96-well plates, incubated at 37° C. for 24 hours, and treated by the peptide at the indicated concentrations for 24, 48 and 72 hours, or with vehicle (PBS or water). Media and peptides were replaced daily. Peptides were prepared in DMEM, and paclitaxel was dissolved in DMSO at a concentration of 2 mM and further diluted into DMEM. Viability was also determined by trypan blue staining. For manual counts, cells were treated with 0.25% trypsin/0.53 mM EDTA, centrifuged, and counted with a hemacytometer following addition of trypan blue dye. At each time, 3 to 6 wells per treatment were counted.

mouse astrocytes [6] = experiment: Cell death analysis by flow cytometry (Annexin V / PI); assay type: cell-based; settings: 100 μM, 72 h, FIG. 8B
rat neurons = experiment: Immunocytochemistry: peptide penetration and microtubule network; assay type: cell-based; settings: 10 μM, 6 h
Method: Hippocampal neuronal cultures were prepared from newborn rat brains according to Ray et al. 1993 and Kaech and Banker 2006. Briefly, the hippocampi of animals younger than 2 days were recovered, minced and digested in 0.01% trypsin for one hour at 37° C. Dissociated cells were plated on coverslips precoated with 5 μg/ml poly-1-lysine and 7 μg/ml collagen at densities of 2×10^5/ml and incubated at 37° C. with a 5% CO2 atmosphere. Twenty-four hours later, the plating solution was replaced by B-27 neurobasal medium, and the second day cytosine arabinoside (20 μM) was added to eliminate non-neural cells. Experiments were performed 7 days after plating.
(§2) Cells were plated on coverslips and cultured in media containing biotinylated peptides (10 μM) for 6 hours. Following PBS washing, the cells were fixed for 10 min in 4% paraformaldehyde, and washed 3 times in PBS. […]
(§3) Observations were carried out with an Olympus confocal microscope (BX50) using Fluoview.3.1. […] Images were acquired with a CoolSNAP-HQ2 camera and analyzed with Metamorph 7.1.7.0. software. Cells that are positive for peptide staining and cells with destroyed microtubule network were counted. Experiments on each cell type were repeated at least three times, and minimums of 200 cells were analyzed for each experiment.

[7] = system: human glioblastoma cell lineage (T98G); settings: cited from earlier work
mouse glioma cells = experiment: Cell death analysis by flow cytometry (Annexin V / PI); assay type: cell-based; settings: 100 μM, 72 h, FIG. 8B
F98 glioma = experiment: Rats bearing intracranial F98 glioma, intracerebral (CED) peptide injection; assay type: in vivo, rat; settings: for reduction of tumor volume (compared to vehicle treated animals): single intracerebral injection of 60 μL of 5 mM peptide at day 6, HE-stained coronal sections
rat primary astrocytes = experiment: Immunocytochemistry: peptide penetration and microtubule network; assay type: cell-based; settings: 10 μM, 6 h
Method: Rat primary astrocytes were obtained from cultures of cerebral cortex as originally described (McCarthy and de Vellis, 1980). Briefly, the cerebral cortex was dissected from newborn rats and cells were recovered after tissue homogenization, trypsination, and centrifugation. They were grown during 3 weeks in DMEM media with glucose and L-glutamine (Lonza France), containing 10% fetal calf serum (Lonza France), 1% penicillin/streptomycin (Sigma) in humidified incubator gassed with 5% CO2 (37° C.).
as §2, with “PBS. They were then incubated for 10 min in a 0.5% triton X-100 permeabilization solution, washed 3 times in PBS before incubation in a blocking solution (5% BSA) for 15 min.” for “PBS.”
as §3

[8] = system: mouse glioma cells (GL261); experiment: as above; assay type: cell-based
9L cells [9] = experiment: Cell death analysis by flow cytometry (Annexin V / PI); assay type: cell-based, rat; settings: 100 μM, 72 hours, Annexin V/PI FACS
Method: (§4) To detect possible apoptotic processes, cells were seeded in 35 mm dishes and cultured in media containing biotinylated peptides (100 μM) or PBS alone for 72 hours. Paclitaxel (40 nM) was used as a positive control to induce apoptosis (Terzis et al., 1997). Cells were then trypsinized, washed in cold PBS, and stained with Annexin V-FITC (BD Pharmingen) in Annexin buffer for 15 min at room temperature. Finally, they were counterstained with 50 μg/mL propidium iodide (Sigma) and analyzed with a FACSCalibur flow cytometer. Experiment on each cell type was repeated three times. 20,000 events per sample were analyzed in each experiment.

primary astrocytes = experiment: as above; assay type: cell-based, rat; settings: 100 μM, 72 hours, Annexin V/PI FACS
Method: as §4

F98 cells [10] = experiment: as above; assay type: cell-based, rat; settings: 100 μM, 72 hours, Annexin V/PI FACS
Method: as §4

astrocytes = experiment: Trypan blue dye exclusion test; assay type: cell-based; settings: data not shown
microtubule = settings: cited from earlier work
9L glioma cells = experiment: Immunocytochemistry: peptide penetration and microtubule network; assay type: cell-based, rat; settings: 10 μM, 6 h
Method: (§5) Cells were plated on coverslips and cultured in media containing biotinylated peptides (10 μM) for 6 hours. Following PBS washing, the cells were fixed for 10 min in 4% paraformaldehyde, and washed 3 times in PBS. They were then incubated for 10 min in a 0.5% triton X-100 permeabilization solution, washed 3 times in PBS before incubation in a blocking solution (5% BSA) for 15 min. Glioma cells and astrocytes were incubated overnight at 4° C. with mouse anti-B-tubulin antibody (Sigma) 1/200, and neurons with mouse anti-Bill-tubulin antibody 1/200. Tubulin and biotinylated peptides were localized using respectively Alexa 568 nm anti-mouse antibody and streptavidin Alexa 488 nm (Molecular Probes) 1/200 for 1 hour, followed by washing in PBS. The preparations were counterstained with 3 μM 4′6-diaminido-2-phenylindole (DAPI; Sigma) for 5 min, and washed twice with PBS. Coverslips were mounted with an antifading solution.
(§6) Observations were carried out with an Olympus confocal microscope (BX50) using Fluoview.3.1. Software or a Leica DMI6000 inverted microscope. Images were acquired with a CoolSNAP-HQ2 camera and analyzed with Metamorph 7.1.7.0. software. Cells that are positive for peptide staining and cells with destroyed microtubule network were counted. Experiments on each cell type were repeated at least three times, and minimums of 200 cells were analyzed for each experiment.

F98 glioma cells = experiment: as above; assay type: cell-based, rat; settings: 10 μM, 6 h
Method: as §5, §6

normal human astrocytes = experiment: as above; assay type: cell-based; settings: FIG. 5B
rat astrocytes = experiment: BrdU incorporation (cell proliferation); assay type: cell-based; settings: 100 μM, 72 hours
Method: as §1

mouse astrocytes [11] = experiment: Immunocytochemistry: peptide penetration and microtubule network; assay type: cell-based; settings: FIG. 6B
human astrocytes = experiment: Cell death analysis by flow cytometry (Annexin V / PI); assay type: cell-based; settings: 100 μM, 72 h, FIG. 8B
[12] = immunofluorescence microscopy, cell counting

**Q.** Which results are given for YSSYSAPVSSSLSVRRSYSSSSGS [NFL-TBS40-63]?
**A.** penetration of the peptide as compared to normal human astrocytes ([1]; 10 μM, 6 h, FIG. 2): in vitro specificity of the penetration; microtubule cytoskeleton (immunohistochemistry) ([1]; FIG. 5B): completely disorganized; induction of apoptosis in vitro (human glioma cells): induces the in vitro apoptosis; cell viability (Trypan blue exclusion) [2]: strongly affected the viability; inhibition of BrdU incorporation (9L cells [3]): 34.8%±2.6; inhibition of BrdU incorporation (F98 cells [4]): 78.2%±3.0; reduction of cell survival (MTS) [5]: 50%; induction of apoptosis in vitro (mouse astrocytes [6]): but not of the corresponding astrocytes; cells with altered microtubule network (rat neurons; immunocytochemistry): 8.5%±1.5; cells penetrated by the peptide (rat neurons; [12]): 17.9%±5.9; microtubule cytoskeleton [7]: disrupt the microtubule cytoskeleton; penetration into cells [7]: penetrate; proliferation [7]: inhibit their proliferation; induction of apoptosis in vitro (mouse glioma cells): induces the in vitro apoptosis; tumor volume by MRI compared to un-treated animals (F98 glioma; MRI analysis, not shown): reduced; weight loss compared to untreated animals (F98 glioma; daily weighing, single injection 5 mM/60 μL): significantly lower; reduction of tumor volume (compared to vehicle treated animals) (F98 glioma; day 16): 71.7%±18.9; reduction of tumor volume (compared to vehicle treated animals) (F98 glioma; day 24): 72.0%±21.2; reduction of tumor volume (compared to vehicle treated animals) (F98 glioma; day 30): 42.8%±11.3; cells with altered microtubule network (rat primary astrocytes; immunocytochemistry): 4.7%±0.6; cells penetrated by the peptide (rat primary astrocytes; [12]): 9%±4.6; penetration of the peptide as compared to mouse astrocytes ([8]; 10 μM, 6 h, FIG. 3): in vitro specificity of the penetration; microtubule cytoskeleton (immunohistochemistry) ([8]; FIG. 6B): completely disorganized; change of living cell number in comparison with negative control (9L cells [9]): −32.6%±7.4; increased number of early apoptotic cells versus negative control (9L cells [9]): 712.1%±581.3; increased number of late apoptotic cells versus negative control (9L cells [9]): 233.6%±82.3; apoptotic response (primary astrocytes): not sensitive; cells in early apoptotic stage, higher than negative control (F98 cells [10]): 233.5%±43.3; cells in late apoptotic stage, higher than negative control (F98 cells [10]): 347.7%±32.6; change of living cell number in comparison with negative control (F98 cells [10]): −37.6%±5.0; cell viability (Trypan blue exclusion) (astrocytes): not affected; microtubule polymerization in vitro (microtubule): inhibit microtubule polymerization; total cells with altered microtubule network (spherical shape, aggregated tubulin) (9L glioma cells; immunocytochemistry): 76.7%±5.8; total cells containing detectable peptide (9L glioma cells; [12]): 58.2%±9; total cells with altered microtubule network (spherical shape, aggregated tubulin) (F98 glioma cells; immunocytochemistry): 82%±3; total cells containing detectable peptide (F98 glioma cells; [12]): 53.5%±1.5; microtubule cytoskeleton (immunohistochemistry) (normal human astrocytes): but not in human astrocytes; effect on proliferation (BrdU incorporation) (rat astrocytes): did not affect their proliferation; microtubule cytoskeleton (immunohistochemistry) (mouse astrocytes [11]): but not in mouse astrocytes; induction of apoptosis in vitro (human astrocytes): but not of the corresponding astrocytes
